The source of these data is patent publication US20050226879A1, “Methods and compositions related to inhibiting nuclear envelope breakdown” (priority 2002, published 2005).

Protein sequences, listed by entry. Tags and fused reporters are not part of them. Residues count along the entry.
UniProt P49790, residues 658-891: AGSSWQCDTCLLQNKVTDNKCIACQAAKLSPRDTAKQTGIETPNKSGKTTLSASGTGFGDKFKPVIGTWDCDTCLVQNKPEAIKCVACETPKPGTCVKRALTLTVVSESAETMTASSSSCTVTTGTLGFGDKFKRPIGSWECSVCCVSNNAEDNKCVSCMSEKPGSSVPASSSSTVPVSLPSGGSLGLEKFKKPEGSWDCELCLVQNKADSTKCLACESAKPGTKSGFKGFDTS

Test [1] addresses GST-hZnF (GST fusion of the Nup153 zinc finger domain used as phage display target) (UniProt P49790). In words: phage display selection, three rounds, on GST-hZnF immobilized on glutathione beads.
Test [2] shares this target. The test can be described thus: phage display selection on the Nup153 zinc finger.

Results are given in words; binding and its absence hold for the method and conditions named. Some binding calls cover weakened binding; strength is not graded here.

Take CTHPFTHECGGGS [ZNFPHD1 peptide]: the binding result in test [1] and in test [2] was “binds” each time.

For CGEHVRPSCGGGS [SEQ ID NO 31 peptide (…), second peptide from the ZnF phage display screen], in test [1], the binding result was “binds”.
